A short description of this experiment: qHTS Assay for Modulators of Lamin A Splicing. The settings on record: HeLa LMNA splicing GFP/RFP minigene ratio, 48 h. A digest of the protocol:
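S3 HeLa cells stably expressing lamin A-EGFP splicing minigene plus DsRed2, 600 cells/well, 48 h compound exposure at 37C. Laser-scanning cytometry; analysed as GFP (500-530 nm)/RFP (575-640 nm) total intensity ratio; 0.5% DMSO vehicle.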
On the technique in general: Quantitative high-throughput screening tests each substance at several concentrations.

Setting [1] is: measured here: GFP splicing reporter channel.
Setting [2] is: measured here: RFP viability control channel.

The structures appear in SMILES notation. The list shows a part of the results. These are further read-outs of the screen, such as a control signal, another cell line or another target. No call is given for them. Compounds called inactive in the main read-out are mostly missing here. Words in brackets tell the shape of the fitted curve; partial curves, single points and poor fits give uncertain potencies.

In the case of `COc1ccc(/C=C/C(=O)c2ccc(C)c([N+](=O)[O-])c2)cc1O`, the AC50 reads like this: under setting [1], 35.5 µM [falling, single point]; under setting [2], 35.5 µM [falling, single point].

Turning to `Cc1ccc(/C=N/NC(=O)CSc2nc3ccccc3n2Cc2ccccc2)o1`, the AC50 under setting [2] was 4.47 µM [rising, partial curve].

With `CCC1=Nc2cc(C(=O)NCc3ccco3)ccc2Sc2ccccc21`, the AC50 under setting [2] was 5.62 µM [rising, single point].

For the compound `Cc1ccccc1-c1cncnc1NCCN1CCOCC1`, the AC50 reads like this: under setting [1], 17.8 µM [falling, single point]; under setting [2], 25.1 µM [falling, single point].

For `Cc1cc(NC(=O)C2C3C(=O)N(c4cccnc4)C(C(=O)NC(C)(C)C)C34C=CC2(C)O4)no1` (configuration not stated), the AC50 under setting [2] is 1 µM [falling, partial curve].

As for `CCOC(=O)c1ccc(N2CCN(c3cccc(Cl)c3)CC2)c(NC(=O)Nc2ccc(OC)cc2OC)c1`, under setting [1], the AC50 is 0.447 µM [falling, full curve].

With `COc1cc(/C=C/C(=O)OCC(=O)Nc2ccccc2Sc2ccc(Cl)cc2)ccc1O`, the AC50 under setting [1] was 14.1 µM [rising, partial curve] and the AC50 under setting [2] is 28.2 µM [rising, partial curve].

For `O=C1C2CC=CCC2C(=O)N1c1ccc(OCC(O)Cn2nnc3ccccc32)cc1` (configuration not stated), the AC50 reads like this: under setting [1], 15.8 µM [rising, single point]; under setting [2], 15.8 µM [rising, single point].

For `O=C(Nc1ccc(Cl)cc1C(=O)Nc1ccc(Br)cn1)c1ccco1`, the AC50 was 7.94 µM [rising, partial curve, poor fit] under setting [1] and 11.2 µM [rising, single point] under setting [2].

Regarding `COc1ccc(-c2cc(=O)oc3c(C)c(O)c(CN(C)C)cc23)cc1`, the AC50 is, setting by setting: under setting [1], 2.51 µM [rising, partial curve, poor fit]; under setting [2], 2.51 µM [rising, partial curve, poor fit].

As for `CCc1ccccc1NC(=O)c1ccc(-n2c(C)ccc2C)cc1`, the AC50 under setting [2] is 15.8 µM [falling, partial curve, poor fit].

Turning to `COC(=O)c1ccc(CN2CCN(CCC(C)C)C(CCO)C2)cc1` (configuration not stated), the AC50 under setting [2] was 0.0251 µM [falling, full curve, poor fit].

Take `COc1ccc2nc(-c3ccc(N)cc3)[nH]c2c1`: under setting [2], the AC50 is 25.1 µM [rising, single point].

`O=C(CN1CCN(c2ccccc2)CC1)Nc1ccc(Oc2ccccc2)cc1`: the AC50 reads like this: under setting [1], 35.5 µM [rising, single point]; under setting [2], 31.6 µM [rising, single point].

For the compound `CC(C)(C)c1ccc(OCCn2ccccc2=O)cc1`, the AC50 reads like this: under setting [1], 7.08 µM [rising, partial curve]; under setting [2], 10 µM [rising, partial curve].

On to `O=C(CN1CCOCC1)Nc1cc(Cl)ccc1Cl`, for which the AC50 under setting [1] is 10 µM [rising, single point].

Regarding `CCCCCCCC1=Cc2ccc(F)cc2C(C(C(=O)OC)C(=O)OC)N1C(=O)OC` (configuration not stated), the AC50 under setting [2] is 0.00126 µM [falling, full curve, poor fit].

Turning to `CCc1ccc(NC(=S)N2CCN(c3cccc(OC)c3)CC2)cc1`, under setting [2], the AC50 is 0.0398 µM [rising, full curve, poor fit].

Take `COC(=O)c1ccc(CSc2nnc(Nc3ccccc3OC)s2)o1`: the AC50 under setting [2] is 0.0891 µM [rising, single point].

With `O=C(NCc1ccc(-c2nc3ccccc3s2)cc1)c1ccco1`, under setting [2], the AC50 is 12.6 µM [rising, single point].

On to `O=C(COc1ncnc2scc(-c3ccc(Cl)cc3)c12)NCc1ccco1`, for which the AC50 reads like this: under setting [1], 8.91 µM [rising, partial curve, poor fit]; under setting [2], 12.6 µM [rising, partial curve].

As for `COc1cc(/C=N/O)cc(Br)c1OS(=O)(=O)c1ccc(C)cc1`, under setting [2], the AC50 was 31.6 µM [rising, single point].

On to `NNC(=O)CSCc1nc(-c2ccc(Cl)cc2)cs1`, for which the AC50 under setting [2] is 1 µM [falling, full curve, poor fit].

Take `Cc1cccc(NC(=S)N=Nc2c(O)n(CN3CCOCC3)c3ccccc23)c1C`: the AC50 under setting [2] was 17.8 µM [rising, partial curve].

As to `Cc1nc(-c2ccc(Cl)cc2)sc1CCNC(=O)c1ccc(C(F)(F)F)cc1`, the AC50 under setting [1] is 20 µM [rising, single point].

For the compound `C[C@@H](C(=O)Nc1ccc2ccccc2c1)[C@H]1C[C@]1(C)[C@H](NC(=O)OCc1ccccc1)c1ccccc1`, the AC50 by setting is: under setting [1], 22.4 µM [rising, partial curve, poor fit]; under setting [2], 20 µM [rising, partial curve].

Take `OC(CNCCC1C=Nc2ccccc21)Cn1c2ccc(Cl)cc2c2cc(Cl)ccc21` (configuration not stated): the AC50 runs as follows: under setting [1], 35.5 µM [falling, single point]; under setting [2], 25.1 µM [falling, partial curve].

For the compound `O=C(/C=C/c1ccccc1Cl)c1ccccc(=O)c1O`, the AC50 under setting [1] was 3.98 µM [rising, single point].

For `CC(C)Cn1c(N)c(C(=O)COC(=O)c2c(F)cccc2F)c(=O)n(C)c1=O`, under setting [2], the AC50 was 0.0251 µM [falling, full curve, poor fit].

Turning to `Nc1cc(=O)[nH]c(SCc2ccc(Cl)cc2)n1`, the AC50 under setting [2] is 14.1 µM [rising, single point].

Take `Cn1c(CN2CCN(C(=O)c3ccccc3Cl)CC2)nc2cc([N+](=O)[O-])ccc21`: the AC50 under setting [2] is 14.1 µM [rising, single point].

On to `Nc1ccc(-c2cc(-c3cccc(N)c3)nc(-c3ccccc3)n2)cc1`, for which, under setting [2], the AC50 was 35.5 µM [falling, single point].

On to `Cc1ccc(S(=O)(=O)N(C)Cc2nc(-c3ccncc3)no2)cc1`, for which the AC50 under setting [2] was 20 µM [rising, single point].

Take `Cn1c(=O)c2c(nc(NCc3ccccc3)n2CCCc2ccccc2)n(C)c1=O`: the AC50 under setting [2] was 11.2 µM [rising, single point].

In the case of `O=C(Nc1nnc(Cc2ccccc2)s1)c1cccnc1`, the AC50 under setting [2] is 12.6 µM [falling, partial curve, poor fit].

Turning to `O=C(C[n+]1cc(-c2ccccc2)n2c1CCCCC2)c1ccc(Cl)cc1`, the AC50 under setting [2] was 15.8 µM [rising, single point].

As a reminder, the AC50 is the midpoint of the concentration-response curve, whichever way the signal moves.

Values taken from PubChem BioAssay AID1487 (National Center for Advancing Translational Sciences (NCATS), 2009).
